Source: PubChem BioAssay AID588590 (National Center for Advancing Translational Sciences (NCATS), 2011)
Out of some 390,000 compounds screened, about 4,000 (1%) were called active. Inconclusive means that the source gave no clear call. Such entries were picked first, then a sample of the others. The call rests on the fitted dose curve; in most records, active means well fitted inhibition curve with a large enough effect; inconclusive means small, poorly fitted or top-dose-only effect, or another doubt; inactive means no such curve, though single readings can be large or run the other way. Where the call is inconclusive, the potency comes from a doubtful curve fit. More than one record can exist for a structure, and the calls need not agree.
Potency means the concentration at half of the fitted maximal effect.

Chains of the proteins cited; added tags and fusions are not shown. Lines headed by an entry give the natural chain unless they say otherwise; changes in a name come on top.
UniProt Q9UNA4: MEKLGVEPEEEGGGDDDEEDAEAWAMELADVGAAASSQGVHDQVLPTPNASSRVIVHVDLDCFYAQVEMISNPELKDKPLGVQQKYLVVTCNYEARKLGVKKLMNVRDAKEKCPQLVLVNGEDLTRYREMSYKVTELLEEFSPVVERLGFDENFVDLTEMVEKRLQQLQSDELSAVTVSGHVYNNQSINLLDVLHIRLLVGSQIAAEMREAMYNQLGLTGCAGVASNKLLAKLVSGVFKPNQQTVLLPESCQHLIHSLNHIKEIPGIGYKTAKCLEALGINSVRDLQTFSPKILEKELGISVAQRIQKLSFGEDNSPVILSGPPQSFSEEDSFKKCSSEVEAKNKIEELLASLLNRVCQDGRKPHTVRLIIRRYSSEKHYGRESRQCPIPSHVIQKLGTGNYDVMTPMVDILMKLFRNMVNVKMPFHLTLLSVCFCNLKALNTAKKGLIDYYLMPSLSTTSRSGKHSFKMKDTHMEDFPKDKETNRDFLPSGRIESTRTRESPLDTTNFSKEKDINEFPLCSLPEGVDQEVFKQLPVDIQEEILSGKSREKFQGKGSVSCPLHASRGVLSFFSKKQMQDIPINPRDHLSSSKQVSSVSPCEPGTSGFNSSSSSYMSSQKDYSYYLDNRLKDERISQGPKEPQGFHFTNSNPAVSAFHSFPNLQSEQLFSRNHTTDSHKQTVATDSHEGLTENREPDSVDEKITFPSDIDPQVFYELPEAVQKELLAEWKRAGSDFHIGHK

Each compound was assayed against DNA polymerase iota (Homo sapiens) (UniProt Q9UNA4) (assay: qHTS for Inhibitors of Polymerase Iota). Settings: Pol iota fluorescent replication assay, 10 min; series mostly up to 115 µM; activity, negative = inhibition: at the top concentration.
Procedure, shortened: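 Fluorescent replication assay read twice, at 0 min and 10 min after adding 50 nM (final) substrate. Enzyme (10 nM) and compounds were first incubated 15 min at room temperature; enzyme-free buffer wells were negative controls.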
For `CCN(CC)c1ccc(C=Nc2ccc(N(C)C)cc2)c(O)c1`, the Potency was inconclusive: 2.51 µM [inhibitor, partial curve, poor fit].
In the case of `O=C(COC(=O)CCC(=O)c1cccs1)Nc1ncc(Cl)cc1Cl`, the “activity, negative = inhibition” value is reported as inactive: 5.67%.
For `Cc1ccc2nc(-c3cccc(SC4CCCCC4)c3)c(NC3CCCCC3)n2c1`, the Potency was inconclusive: 10 µM [inhibitor, partial curve, poor fit].
With `Cc1ccc(OCCC(=O)OCC(=O)Nc2ccc(Cl)cn2)cc1` the Potency was inconclusive: 15.8 µM [inhibitor, partial curve, poor fit].
For `CC(C)(C)c1cccc(S(=O)(=O)N2CCN(c3nc(-c4cccs4)nc4ccccc34)CC2)c1`, the “activity, negative = inhibition” value was inactive: 10.5%.
With `CC(C)Sc1nnc(NC(=O)c2ccco2)s1` the Potency was inconclusive: 89.1 µM [inhibitor, single point].
For `CC1CCN(c2ccc(S(=O)(=O)N3CCC(C)CC3)cc2N)CC1`, the “activity, negative = inhibition” value was inactive: 15.4%.
`CSc1nsc(/C=C/Nc2ccc(C(=O)O)cc2)c1C#N` was tested, and the “activity, negative = inhibition” value was inactive: 56.5%.
In the case of `COc1ccc2nc(SCC(=O)Nc3ccccc3C)[nH]c2c1`, the Potency is reported as inconclusive: 70.8 µM [inhibitor, partial curve, poor fit].
For `COc1cc(/C=N/NC(=O)c2cccnc2)ccc1OCC(=O)Nc1ccc(C)cc1`, the Potency was inconclusive: 25.1 µM [inhibitor, full curve].
For `CC(C)(C)C(=O)CSc1ncccn1`, the Potency was inconclusive: 11.2 µM [inhibitor, partial curve, poor fit].
With `Cc1ccc(-c2cc(C(=O)O)n(-c3ccc(S(N)(=O)=O)cc3)n2)cc1` the Potency was inconclusive: 50.1 µM [inhibitor, partial curve, poor fit].
With `CCNc1nc2[nH]c(=O)c3c(c2s1)OC(N)=C(C#N)C3c1ccc(C)cc1` (stereo unspecified) the “activity, negative = inhibition” value was inactive: 14.4%.
For `COCCN1CCn2c(nc3cc(Nc4nnc(C)c5ccccc45)ccc32)C1`, the Potency was inconclusive: 25.1 µM [inhibitor, partial curve, poor fit].
In the case of `O=C1C=CC(=O)N1c1ccc2c(c1)C(NC(=O)C(F)(F)F)c1ccccc1-2` (stereo unspecified), the “activity, negative = inhibition” value is reported as inactive: 22.1%.
In the case of `CCCCN1C(Nc2ccccc2)=NC[C@@H]1C`, the Potency is reported as inconclusive: 25.1 µM [inhibitor, partial curve, poor fit].
`COC(=O)c1ccc2c(=O)n(CCN3CCOCC3)c(SCC(=O)Nc3ccc(C)cc3)nc2c1` was tested, and the “activity, negative = inhibition” value was inactive: -20.2%.
With `CN(c1ccccc1)c1ccc(/C=C/[N+](=O)[O-])cc1` the Potency was inconclusive: 17.8 µM [inhibitor, partial curve].
In the case of `CCc1cnc2c(c1SCC(=O)Nc1ccc(C(=O)OC)cc1)c(=O)n(C)c(=O)n2C`, the “activity, negative = inhibition” value is reported as inactive: 8.54%.
For `Cc1ccc(C)c(OCCC(=O)OCC(=O)N2CCN(S(=O)(=O)c3ccc(Cl)cc3)CC2)c1`, the Potency was inconclusive: 39.8 µM [inhibitor, single point].
`COCc1ccc(CN2CCC(C(=O)Nc3cccc(-c4cccc(Cl)c4)c3)CC2)o1` was tested, and the Potency was inconclusive: 79.4 µM [inhibitor, single point].
For `O=[N+]([O-])c1ccc(N2CCN(c3ccc(F)cc3)CC2)nc1`, the Potency was inconclusive: 31.6 µM [inhibitor, single point].
With `O=C(O)c1c[nH]c2ccc(S(=O)(=O)N3CCN(c4ccc(F)cc4)CC3)cc2c1=O` the Potency was inconclusive: 15.8 µM [inhibitor, full curve, poor fit].
`COc1ccc(CCn2c3c(c(=O)[nH]c2=S)CN(CC(C)C)CN3)cc1OC` was tested, and the Potency was inconclusive: 89.1 µM [inhibitor, single point].
`NC(=S)N=Nc1c(O)[nH]c2c(Cl)cc(Cl)cc12` was tested, and the Potency was inconclusive: 28.2 µM [inhibitor, partial curve, poor fit].
In the case of `O=C(CCN1C(=O)/C(=C/c2cccs2)SC1=S)Nc1cccc(C(=O)O)c1`, the Potency is reported as inconclusive: 15.8 µM [inhibitor, partial curve, poor fit].
In the case of `COc1cccc(C(=O)Oc2ccccc2/C=C\C(=O)c2cc3ccccc3o2)c1`, the Potency is reported as inconclusive: 22.4 µM [inhibitor, full curve, poor fit].
In the case of `CCSC1=NSC2=NC(=O)/C(=C\c3coc4ccccc4c3=O)C(=N)N12`, the Potency is reported as inconclusive: 79.4 µM [inhibitor, partial curve, poor fit].
In the case of `Cc1ccc(-n2nc3c(c2NC(=O)c2c(-c4ccccc4Cl)noc2C)CSC3)cc1`, the Potency is reported as inconclusive: 10 µM [inhibitor, full curve, poor fit].
For `C=C(C)C(=O)Nc1cccc(C2=NOC3(C2)C[C@H](C(N)=O)N(C(=O)CC)C3)c1` (stereo partly specified), the Potency was inconclusive: 89.1 µM [inhibitor, single point].
In the case of `COc1ccc(C(=O)Oc2ccc(Br)cc2C(=S)N2CCOCC2)cc1`, the Potency is reported as inconclusive: 63.1 µM [inhibitor, partial curve, poor fit].
With `Cc1cccc(CCNC(=O)C2CCN(c3ncnc4c3nc3n4CCCCC3)CC2)c1` the “activity, negative = inhibition” value was inactive: -15.4%.
With `CC(C)CC(=O)Nc1ccc(C(=O)COc2ccc(-c3nnco3)cc2)cc1` the Potency was inconclusive: 28.2 µM [inhibitor, partial curve, poor fit].
For `COc1cc(/C=C/CNC[C@H]2O[C@@H](n3cnc(C(N)=O)n3)[C@H](O)[C@@H]2O)ccc1O`, the Potency was inconclusive: 31.6 µM [inhibitor, partial curve, poor fit].
For `C/C(=N\NS(=O)(=O)c1ccc(Br)cc1)c1ccncc1`, the Potency was inconclusive: 35.5 µM [inhibitor, single point].
In the case of `C/C(=C\c1ccc(C(=O)O)cc1)c1ccc2c(c1)C(C)(C)CCC2(C)C`, the Potency is reported as active: 31.6 µM.
With `Cc1ccnc(NS(=O)(=O)c2ccc(NC(=O)CSc3nc(-c4ccccc4)cc(=O)[nH]3)cc2)n1` the Potency was inconclusive: 50.1 µM [inhibitor, partial curve, poor fit].
`O=C(Nc1ccc(C(=O)O)cc1)/C(=C\c1ccco1)NC(=O)c1ccccc1Cl` was tested, and the Potency was inconclusive: 35.5 µM [inhibitor, single point].
`O=[N+]([O-])c1ccc(Cl)c(-c2ccc(/C=N/c3c(-c4ccco4)nc4ccccn34)o2)c1` was tested, and the Potency was inconclusive: 14.1 µM [inhibitor, partial curve, poor fit].
With `COc1ccccc1CN1CC(C(=O)N2CCC(OC)CC2)CCC1=O` (stereo unspecified) the Potency was inconclusive: 89.1 µM [inhibitor, single point].
With `Cc1ccn2c(c1)nc(=O)c1cc(S(=O)(=O)N3CCCCC3)c(Cl)cc12` the “activity, negative = inhibition” value was inactive: 16.3%.
With `Cc1ccc(OCC(O)CN2C(=O)NC(C)(C)C2=O)cc1C` (stereo unspecified) the Potency was inconclusive: 31.6 µM [inhibitor, partial curve, poor fit].
With `Cc1ccc(S(=O)(=O)c2nnn3c2nc(N2CCC(C)CC2)c2cc(Cl)ccc23)cc1C` the “activity, negative = inhibition” value was inactive: 19.5%.
In the case of `CCOC(=O)c1sc2nc3c(SCCC(=O)O)cc(C(=O)c4cc(OC)ccc4O)cn3c(=O)c2c1C`, the Potency is reported as inconclusive: 8.91 µM [inhibitor, full curve, poor fit].
With `Cc1ccc(-c2nc3cnccn3c2Nc2ccc3c(c2)OCCO3)o1` the Potency was inconclusive: 3.98 µM [inhibitor, partial curve, poor fit].
In the case of `Cc1nn2c(=O)cc(COC(=O)c3ccc(NC(=O)COc4ccc(Cl)cc4)cc3)nc2s1`, the Potency is reported as inconclusive: 89.1 µM [inhibitor, single point].
For `Cc1ccc(C2(C)NC(=O)N(CC(=O)NCCN3C(=O)S/C(=C\c4cccnc4)C3=O)C2=O)cc1` (stereo unspecified), the Potency was inconclusive: 89.1 µM [inhibitor, partial curve, poor fit].
In the case of `O=C1CS/C(=C/C(=O)c2cccc(Cl)c2)N1`, the Potency is reported as inconclusive: 20 µM [inhibitor, partial curve, poor fit].
For `COC(CNC(=O)C1CCN(S(=O)(=O)c2ccc3nc4c(c(C(=O)O)c3c2)CC(C)CC4)CC1)OC` (stereo unspecified), the Potency was inconclusive: 17.8 µM [inhibitor, full curve].
With `CCN1CCN(C(=O)c2[nH]c3ccc(OC)cc3c2C)CC1` the Potency was inconclusive: 63.1 µM [inhibitor, single point].
With `O=C(COC(=O)c1cc(Cl)ccc1Cl)NC1CCCC1` the Potency was inconclusive: 79.4 µM [inhibitor, partial curve].
With `O=C(CSCc1cccc(Cl)c1)OCc1nc2ccsc2c(=O)[nH]1` the Potency was inconclusive: 20 µM [inhibitor, partial curve, poor fit].
With `COc1ccc(/C=C/c2cc[n+](C)c3ccccc23)cc1OC` the Potency was inconclusive: 50.1 µM [inhibitor, partial curve].
With `Cc1ccc(C)c(NS(=O)(=O)c2ccc3[nH]c(=O)oc3c2)c1` the Potency was inconclusive: 50.1 µM [inhibitor, partial curve, poor fit].
With `[O-][n+]1nc2ccccc2c2ccccc21` the “activity, negative = inhibition” value was inactive: -6.95%.
`CCOc1ccc(CCNC(=O)c2ccc3c(c2)N(Cc2ccccc2)C(=O)c2ccccc2S3=O)cc1OCC` (stereo unspecified) was tested, and the “activity, negative = inhibition” value was inactive: -3.07%.
In the case of `NC(=O)CC(NC(=O)Cc1cccc2ccccc12)c1ccc(NC2CC3CCC2C3)c([N+](=O)[O-])c1` (stereo unspecified), the Potency is reported as inconclusive: 39.8 µM [inhibitor, single point].
With `O=S(=O)(NCc1ccccn1)C(F)(F)F` the Potency was inconclusive: 3.98 µM [inhibitor, partial curve, poor fit].
For `CC1=NN(C(N)=S)C(=O)C1N=Nc1ccc(O)cc1` (stereo unspecified), the Potency was inconclusive: 12.6 µM [inhibitor, partial curve, poor fit].
For `O=C(CSc1nnc(-c2ccco2)o1)NC(=O)Cc1ccccc1`, the Potency was inconclusive: 25.1 µM [inhibitor, partial curve, poor fit].
`C=CCn1c2ccccc2c2nnc(SCC(=O)Nc3c(C)n(C)n(-c4ccccc4)c3=O)nc21` was tested, and the Potency was inconclusive: 39.8 µM [inhibitor, partial curve].
